Source: US20220411428A1, “Pyrimidone Derivatives Containing Two Fused Bicyclic Rings” (priority 2019, published 2022)
Read-outs that look alike come from different tables or passages of the source. Some entries share one result that the patent states for a list of compounds. At least one compound was matched to its structure with a doubt left.

Assays:
Assay type in all cases: in vivo
[1] = tested on: tobacco budworm (Heliothis virescens); assay: Tobacco budworm (Heliothis virescens) microtiter insect-diet test; details: egg and larval mortality, visually assessed after 5 days
Protocol: (§1) If not otherwise specified, the test solutions are prepared as follows: The active compound is dissolved at the desired concentration in a mixture of 1:1 (vol:vol) distilled water:acteone. The test solution is prepared at the day of use. Test solutions are prepared in general at concentrations of 2500 ppm, 1415 ppm, 828 ppm, 800 ppm and 300 ppm (wt/vol).
(§2) For evaluating control of tobacco budworm (Heliothis virescens) the test unit consisted of 96-well-microtiter plates containing an insect diet and 15-25 H. virescens eggs. The compounds were formulated using a solution containing 75% v/v water and 25% v/v DMSO. Different concentrations of formulated compounds were sprayed onto the insect diet at 10 μl, using a custom built micro atomizer, at two replications. After application, microtiter plates were incubated at about 28±1° C. and about 80±5% relative humidity for 5 days. Egg and larval mortality was then visually assessed.

[2] = tested on: boll weevil (Anthonomus grandis); assay: Boll weevil (Anthonomus grandis) microtiter insect-diet test; details: egg and larval mortality, visually assessed after 5 days
Protocol: as §1
as §2, with “boll weevil (Anthonomus grandis)” for “tobacco budworm (Heliothis virescens)”, “5-10 A. grandis” for “15-25 H. virescens”, “5” for “10”, “25±1°” for “28±1°”, “75±5%” for “80±5%”

[3] = tested on: yellow fever mosquito (Aedes aegypti); details: larval mortality, 2 days
Protocol: as §1
For evaluating control of yellow fever mosquito (Aedes aegypti) the test unit consisted of 96-well-microtiter plates containing 200 μl of tap water per well and 5-15 freshly hatched A. aegypti 5 larvae. The active compounds were formulated using a solution containing 75% (v/v) water and 25% (v/v) DMSO. Different concentrations of formulated compounds or mixtures were sprayed onto the insect diet at 2.5 μl, using a custom-built micro atomizer, at two replications. After application, microtiter plates were incubated at 28±1° C., 80±5% R^H for 2 days. Larval 10 mortality was then visually assessed.

[4] = tested on: green peach aphid (Myzus persicae); assay: Green peach aphid (Myzus persicae) systemic test, artificial diet under membrane; details: adult aphids on treated diet, 3 days
Protocol: as §1
For evaluating control of green peach aphid (Myzus persicae) through systemic means the test unit consisted of 96-well-microtiter plates containing liquid artificial diet under an artificial membrane. The compounds were formulated using a solution containing 75% v/v water and 25% v/v DMSO. Different concentrations of formulated compounds were pipetted into the aphid diet, using a custom built pipetter, at two replications. After application, 5-8 adult aphids were placed on the artificial membrane inside the microtiter plate wells. The aphids were then allowed to suck on the treated aphid diet and incubated at about 23±1° C. and about 50±5% relative humidity for 3 days. Aphid mortality and fecundity was then visually assessed.

[5] = tested on: Greenhouse Whitefly (Trialeurodes vaporariorum); assay: Greenhouse whitefly (Trialeurodes vaporariorum) egg plant leaf disk test; details: mortality of hatched crawlers, 6 days
Protocol: as §1
For evaluating control of Greenhouse Whitefly (Trialeurodes vaporariorum) the test unit consisted of 96-well-microtiter plates containing a leaf disk of egg plant leaf disk with white fly eggs. The compounds or mixtures were formulated using a solution containing 75% water and 25% DMSO. Different concentrations of formulated were sprayed onto the insect diet at 2.5 μl, using a custom-built micro atomizer, at two replications. After application, microtiter plates were incubated at 23±1° C., 65±5% R^H for 6 days. Mortality of hatched crawlers was then visually assessed.

[6] = tested on: Southern Green Stink Bug (Nezara viridula); assay: Southern green stink bug (Nezara viridula) soybean pod Petri dish spray test; details: 300 ppm; late 3rd instar N. viridula, percent mortality after 5 days

SMILES	mortality in comparison with untreated controls ([1]; 2500 ppm)	mortality in comparison with untreated controls ([2]; 828 ppm)	mortality in comparison with untreated controls ([3]; 2500 ppm)	mortality in comparison with untreated controls ([4]; 2500 ppm)	mortality in comparison with untreated controls ([4]; 800 ppm)	further results
CCS(=O)(=O)c1c(-c2cn3c(=O)n(CC4CC4)c(C(F)(F)F)cc3n2)nc2ccccn12 [I.3]	over 75%	over 75%	at least 75%	over 75%	–	–
C#CCn1c(C(F)(F)F)cc2nc(-c3nc4ccccn4c3S(=O)(=O)CC)cn2c1=O [I.4]	over 75%	over 75%	at least 75%	over 75%	–	–
CCS(=O)(=O)c1c(-c2cn3c(=O)n(CC(F)(F)F)c(C(F)(F)F)cc3n2)nc2ccccn12 [I.5]	over 75%	over 75%	at least 75%	over 75%	–	–
CCS(=O)(=O)c1c(-c2cn3c(=O)n(C4CC4)c(C(F)(F)F)cc3n2)nc2ccc(C(F)(F)F)cn12 [I.6]	over 75%	over 75%	at least 75%	over 75%	–	mortality in comparison with untreated controls ([5]; 2500 ppm): at least 75%; mortality in comparison with untreated controls [6]: at least 75%
CCS(=O)(=O)c1c(-c2cn3c(=O)n(C)c(C(F)(F)F)cc3n2)nc2ccc(Br)cn12 [I.7]	–	–	–	–	over 75%	–
CCS(=O)(=O)c1c(-c2cn3c(=O)n(C4CC4)c(C(F)(F)F)cc3n2)nc2ccc(Br)cn12 [I.8]	–	–	–	–	over 75%	mortality in comparison with untreated controls ([1]; 800 ppm): over 75%; mortality in comparison with untreated controls ([2]; 800 ppm): over 75%; mortality in comparison with untreated controls ([3]; 800 ppm): at least 75%; mortality in comparison with untreated controls [6]: at least 75%
CCS(=O)(=O)c1c(-c2cn3c(=O)n(C)c(C(F)(F)F)cc3n2)nn2ccccc12 [I.12]	–	–	–	–	over 75%	mortality in comparison with untreated controls ([5]; 800 ppm): at least 75%
